PubChem BioAssay AID1671195 | Yale University | 2021

- Screen: 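Knockdowns that increase or decrease uptake of fluorescent LDL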 (primary screen)
- Cells: human Huh7 hepatoma cells
- Knock-down reagent: siRNA pool against human genes, 18 nM
- Timing: about 2 to 2.5 days of knockdown, then 8 h LDL uptake
- Conditions: DiI-labelled LDL at 30 µg/ml for 8 h, in lipoprotein-deficient serum medium
- Detection: 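Per-cell DiI-LDL intensity by automated imaging; well means scaled to the plate median and given as a robust z-score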
- Scale: robust z-score: higher = more LDL uptake after knockdown
- Rule for the call: 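a gene counts as active if at least two replicate z-scores exceed ±2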
In all, the deposit lists about 22,000 reagents; below is a part drawn at random. Over the whole deposit, about 1,510 (6.9%) got an active call. 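Active includes knockdowns raising or lowering LDL uptake; positive z-scores mean more uptake, negative mean less.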

RSRC2 (arginine and serine rich coiled-coil 2)
- robust z-score, replicate 1: -0.0452
- robust z-score, replicate 2: 0.179
- robust z-score, replicate 3: 0.000293
- Outcome: inactive

FGD6 (FYVE, RhoGEF and PH domain containing 6)
- robust z-score, replicate 1: -0.159
- robust z-score, replicate 2: 0.868
- robust z-score, replicate 3: 0.425
- Outcome: inactive

CEACAM1 (CEA cell adhesion molecule 1)
- robust z-score, replicate 1: -0.00391
- robust z-score, replicate 2: -0.831
- robust z-score, replicate 3: -0.544
- Outcome: inactive

RUFY3 (RUN and FYVE domain containing 3)
- robust z-score, replicate 1: 3.11
- robust z-score, replicate 2: 2.42
- robust z-score, replicate 3: 2.45
- Outcome: active

RNASE11 (ribonuclease A family member 11 (inactive))
- robust z-score, replicate 1: 0.258
- robust z-score, replicate 2: 0.248
- robust z-score, replicate 3: -0.414
- Outcome: inactive

WBP2 (WW domain binding protein 2)
- robust z-score, replicate 1: -1.67
- robust z-score, replicate 2: -0.468
- robust z-score, replicate 3: -1.37
- Outcome: inactive

TRIM46 (tripartite motif containing 46)
- robust z-score, replicate 1: -0.694
- robust z-score, replicate 2: -1.07
- robust z-score, replicate 3: -0.0475
- Outcome: inactive

C11orf86 (chromosome 11 open reading frame 86)
- robust z-score, replicate 1: 0.527
- robust z-score, replicate 2: 0.414
- robust z-score, replicate 3: 0.662
- Outcome: inactive

AIF1 (allograft inflammatory factor 1)
- robust z-score, replicate 1: -0.388
- robust z-score, replicate 2: -0.222
- robust z-score, replicate 3: -0.409
- Outcome: inactive

CENPF (centromere protein F)
- robust z-score, replicate 1: -0.735
- robust z-score, replicate 2: -1.68
- robust z-score, replicate 3: -1.5
- Outcome: inactive

ALAS2 (5'-aminolevulinate synthase 2)
- robust z-score, replicate 1: 0.694
- robust z-score, replicate 2: 0.564
- robust z-score, replicate 3: 0.302
- Outcome: inactive

ARID2 (AT-rich interaction domain 2)
- robust z-score, replicate 1: 1.17
- robust z-score, replicate 2: 0.637
- robust z-score, replicate 3: -0.572
- Outcome: inactive

In a second layout: results already given.
gene symbol	robust z-score, replicate 1	robust z-score, replicate 2	robust z-score, replicate 3	Outcome
RUFY3 (RUN and FYVE domain containing 3)	3.11	2.42	2.45	active
RNASE11 (ribonuclease A family member 11 (inactive))	0.258	0.248	-0.414	inactive
WBP2 (WW domain binding protein 2)	-1.67	-0.468	-1.37	inactive
TRIM46 (tripartite motif containing 46)	-0.694	-1.07	-0.0475	inactive

Additional reagents:
NELFE (negative elongation factor complex member E)
- robust z-score, replicate 1: 0.0549
- robust z-score, replicate 2: 0.74
- robust z-score, replicate 3: 0.0105
- Outcome: inactive

NDC80 (NDC80 kinetochore complex component)
- robust z-score, replicate 1: -0.81
- robust z-score, replicate 2: 1.17
- robust z-score, replicate 3: 1.16
- Outcome: inactive

CCT6A (chaperonin containing TCP1 subunit 6A)
- robust z-score, replicate 1: 2.26
- robust z-score, replicate 2: 3.05
- robust z-score, replicate 3: -0.607
- Outcome: active

CRYBB1 (crystallin beta B1)
- robust z-score, replicate 1: -0.583
- robust z-score, replicate 2: 0.87
- robust z-score, replicate 3: -0.78
- Outcome: inactive

NIM1K (NIM1 serine/threonine protein kinase)
- robust z-score, replicate 1: -0.809
- robust z-score, replicate 2: -0.881
- robust z-score, replicate 3: -0.978
- Outcome: inactive

ULBP1 (UL16 binding protein 1)
- robust z-score, replicate 1: 0.217
- robust z-score, replicate 2: -0.177
- robust z-score, replicate 3: -0.247
- Outcome: inactive

NR1D2 (nuclear receptor subfamily 1 group D member 2)
- robust z-score, replicate 1: -0.628
- robust z-score, replicate 2: -0.0768
- robust z-score, replicate 3: 0.215
- Outcome: inactive

NLRP10 (NLR family pyrin domain containing 10)
- robust z-score, replicate 1: -1.35
- robust z-score, replicate 2: -1.28
- robust z-score, replicate 3: -1.47
- Outcome: inactive

PTAR1 (protein prenyltransferase alpha subunit repeat containing 1)
- robust z-score, replicate 1: 1
- robust z-score, replicate 2: 1.36
- robust z-score, replicate 3: 1.42
- Outcome: inactive

FBXO45 (F-box protein 45)
- robust z-score, replicate 1: 1.71
- robust z-score, replicate 2: 1.32
- robust z-score, replicate 3: 0.166
- Outcome: inactive

SDHAF3 (succinate dehydrogenase complex assembly factor 3)
- robust z-score, replicate 1: 1.19
- robust z-score, replicate 2: 0.587
- robust z-score, replicate 3: 0.0257
- Outcome: inactive

RBBP8 (RB binding protein 8, endonuclease)
- robust z-score, replicate 1: 1.1
- robust z-score, replicate 2: 0.501
- robust z-score, replicate 3: 0.601
- Outcome: inactive
